# Tested on: pupil light response / muscarinic receptors within the iris
# Set-up: species or system human
# Settings: in vivo
smiles,measurement,value
CN1[C@@H]2CC[C@H]1C[C@@H](OC(=O)C(CO)c1ccccc1)C2 (stereo partly shown) [atropine],"ratio of pupil velocity at 2x latency, post- to pre-treatment (V400post/V400pre)",65%

# Source: patent US12349973B2 (priority 2019, dated 2025)
